Measured values reported in paper PMC10911279.
Results are given in words; binding and its absence hold for the method and conditions named. Binding seen in cells or lysates may run through a third protein. Some binding calls cover weakened binding; strength is not graded here. For part of these data: Tags and fused reporters may be left off the sequences shown.

T1: Git-RFP (Drosophila) (UniProt Q95RG8)
T1 sequence: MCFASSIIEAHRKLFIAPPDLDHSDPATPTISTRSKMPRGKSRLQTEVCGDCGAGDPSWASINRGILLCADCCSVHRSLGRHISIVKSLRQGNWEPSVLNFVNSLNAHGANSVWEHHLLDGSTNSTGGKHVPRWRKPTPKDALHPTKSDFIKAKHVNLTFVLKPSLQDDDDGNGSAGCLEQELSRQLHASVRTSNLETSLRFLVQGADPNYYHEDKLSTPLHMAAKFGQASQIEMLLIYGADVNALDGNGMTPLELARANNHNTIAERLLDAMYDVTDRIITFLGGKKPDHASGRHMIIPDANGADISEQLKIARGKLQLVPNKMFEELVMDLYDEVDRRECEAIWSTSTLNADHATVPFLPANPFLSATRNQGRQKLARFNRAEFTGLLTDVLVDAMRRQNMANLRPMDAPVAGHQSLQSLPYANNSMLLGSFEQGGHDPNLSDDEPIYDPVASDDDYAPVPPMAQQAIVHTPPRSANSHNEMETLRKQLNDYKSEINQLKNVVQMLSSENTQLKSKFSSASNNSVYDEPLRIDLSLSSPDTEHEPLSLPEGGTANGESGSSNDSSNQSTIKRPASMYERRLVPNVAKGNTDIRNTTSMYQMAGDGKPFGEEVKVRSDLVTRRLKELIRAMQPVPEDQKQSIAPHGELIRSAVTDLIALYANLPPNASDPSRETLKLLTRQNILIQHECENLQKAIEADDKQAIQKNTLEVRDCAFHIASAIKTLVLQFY

T2: atypical protein kinase C (aPKC) (Drosophila (endogenous in larval tissues)) (UniProt A1Z9X0)
T2 sequence: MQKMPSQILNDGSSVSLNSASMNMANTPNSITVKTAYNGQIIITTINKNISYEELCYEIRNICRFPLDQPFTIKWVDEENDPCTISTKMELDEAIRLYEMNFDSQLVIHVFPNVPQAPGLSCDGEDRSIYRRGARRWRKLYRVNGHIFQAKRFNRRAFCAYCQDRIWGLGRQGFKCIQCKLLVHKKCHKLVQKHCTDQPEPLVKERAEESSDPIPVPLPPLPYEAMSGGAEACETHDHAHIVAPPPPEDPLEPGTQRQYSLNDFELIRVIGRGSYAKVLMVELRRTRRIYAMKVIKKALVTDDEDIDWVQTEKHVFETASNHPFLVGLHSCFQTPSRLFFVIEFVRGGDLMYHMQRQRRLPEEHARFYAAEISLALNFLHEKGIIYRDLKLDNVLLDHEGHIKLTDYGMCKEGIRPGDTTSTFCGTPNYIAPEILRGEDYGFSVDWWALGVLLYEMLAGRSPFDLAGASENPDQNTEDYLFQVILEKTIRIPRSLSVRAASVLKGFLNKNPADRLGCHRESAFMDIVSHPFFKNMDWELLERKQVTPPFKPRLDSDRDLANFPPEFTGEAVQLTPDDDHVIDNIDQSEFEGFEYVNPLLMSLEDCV

T3: Vap33 (Drosophila (endogenous in larval tissues)) (UniProt Q9W4N8)
T3 sequence: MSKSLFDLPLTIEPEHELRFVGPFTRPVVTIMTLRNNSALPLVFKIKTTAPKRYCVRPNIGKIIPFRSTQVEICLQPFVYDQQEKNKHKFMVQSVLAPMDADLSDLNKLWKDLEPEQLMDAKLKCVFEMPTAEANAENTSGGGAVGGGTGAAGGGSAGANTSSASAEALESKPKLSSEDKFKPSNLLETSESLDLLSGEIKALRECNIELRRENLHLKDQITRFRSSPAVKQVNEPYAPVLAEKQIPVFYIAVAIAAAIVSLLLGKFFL

B1: Lgl-GFP (endogenously GFP-tagged Lgl) (protein, UniProt P08111 1-1161)
chain: MLKFIRGKGQQPSADRHRLQKDLFAYRKTAQHGFPHKPSALAYDPVLKLMAIGTQTGALKVFGQPGVELYGQHTLLNNSASELNVQLLEWVYGTGRILSLTAANQLILWEPVGATLLPIKTLPFDGKLKKVSSLCCSLSKDLLWIGTEGGNIYQLDLHTFTIKEPVIYHDVVLEQVPPAYKLNPGAIESIRQLPNSPSKLLVAYNRGLCVLWDFESASVQRAYIAPGHGQSVGLTVNFEGSEFTWYHADGSYATWSIDNPEPPSNVNYVPYGPDPCKSINRLYKGKRRSNDVIVFSGGMPRSAYGDHNCVSVHASDGHKVCLDFTSKVIDFFVTFENNRDVAEVLVVLLEEELCAYDLTDPNICAIKAPYLHSVHASAVTCNYLASEVVQSVYESILRAGDEQDIDYSNISWPITGGTLPDNLEESVEEDATKLYEILLTGHEDGSVKFWDCTGVLLKPIYNFKTSSIFGSESDFRDDAAADMSAEQVDEGEPPFRKSGLFDPYSDDPRLAVKKIAFCPKTGQLIVGGTAGQIVIADFIDLPEKVSLKYISMNLVSDRDGFVWKGHDQLNVRSNLLDGEAIPTTERGVNISGVLQVLPPASITCMALEASWGLVSGGTAHGLVLFDFKNFVPVFHRCTLNPNDLTGAGEQLSRRKSFKKSLRESFRKLRKGRSTRTNQSNQVPTTLEARPVERQIEARCADDGLGSMVRCLLFAKTYVTNVNITSPTLWSATNASTVSVFLLHLPPAQTAATAVPSASGNAPPHMPRRISAQLAKEIQLKHRAPVVGISIFDQAGSPVDQLNAGENGSPPHRVLIASEEQFKVFSLPQLKPINKYKLTANEGARIRRIHFGSFSCRISPETLQSMHGCSPTKSTRSHGDGEADPNISGSLAVSRGDVYNETALICLTNMGDIMVLSVPELKRQLNAAAVRREDINGVSSLCFTNSGEALYMMSSSELQRIALATSRVVQPTGVVPVEPLENEESVLEENDAENNKETYACDEVVNTYEIKNPSGISICTRPAEENVGRNSVQQVNGVNISNSPNQANETISSSIGDITVDSVRDHLNMTTTTLCSINTEETIGRLSVLSTQTNKASTTVNMSEIPNINISNLEDLESKRNTTETSTSSVVIKSIITNISHEKTNGDNKIGTPKTAPEESQF
B2: Git-RFP (protein, UniProt Q95RG8 1-731)
chain: T1 sequence

Key:
Experiment in all cases: proximity ligation; in situ Duolink PLA in fixed third-instar larval tissues (eye-antennal discs, salivary gland, brain) with pairs of mouse and rabbit primary antibodies; single-antibody negative controls
Git-RFP (Drosophila) = target: T1, Git-RFP (Drosophila)
[1] = target: T2, atypical protein kinase C (aPKC) (Drosophila (endogenous in larval tissues))
[2] = target: T3, Vap33 (Drosophila (endogenous in larval tissues))

| Binder | binding (Git-RFP (Drosophila)) | binding [1] | binding [2] |
| --- | --- | --- | --- |
| B1 | binds | binds |  |
| B2 |  |  | binds |
